Measurements reported in paper doi:10.1101/204172.

Protein sequences, listed by entry. Tags and fused reporters are not part of them.
UniProt Q923J1: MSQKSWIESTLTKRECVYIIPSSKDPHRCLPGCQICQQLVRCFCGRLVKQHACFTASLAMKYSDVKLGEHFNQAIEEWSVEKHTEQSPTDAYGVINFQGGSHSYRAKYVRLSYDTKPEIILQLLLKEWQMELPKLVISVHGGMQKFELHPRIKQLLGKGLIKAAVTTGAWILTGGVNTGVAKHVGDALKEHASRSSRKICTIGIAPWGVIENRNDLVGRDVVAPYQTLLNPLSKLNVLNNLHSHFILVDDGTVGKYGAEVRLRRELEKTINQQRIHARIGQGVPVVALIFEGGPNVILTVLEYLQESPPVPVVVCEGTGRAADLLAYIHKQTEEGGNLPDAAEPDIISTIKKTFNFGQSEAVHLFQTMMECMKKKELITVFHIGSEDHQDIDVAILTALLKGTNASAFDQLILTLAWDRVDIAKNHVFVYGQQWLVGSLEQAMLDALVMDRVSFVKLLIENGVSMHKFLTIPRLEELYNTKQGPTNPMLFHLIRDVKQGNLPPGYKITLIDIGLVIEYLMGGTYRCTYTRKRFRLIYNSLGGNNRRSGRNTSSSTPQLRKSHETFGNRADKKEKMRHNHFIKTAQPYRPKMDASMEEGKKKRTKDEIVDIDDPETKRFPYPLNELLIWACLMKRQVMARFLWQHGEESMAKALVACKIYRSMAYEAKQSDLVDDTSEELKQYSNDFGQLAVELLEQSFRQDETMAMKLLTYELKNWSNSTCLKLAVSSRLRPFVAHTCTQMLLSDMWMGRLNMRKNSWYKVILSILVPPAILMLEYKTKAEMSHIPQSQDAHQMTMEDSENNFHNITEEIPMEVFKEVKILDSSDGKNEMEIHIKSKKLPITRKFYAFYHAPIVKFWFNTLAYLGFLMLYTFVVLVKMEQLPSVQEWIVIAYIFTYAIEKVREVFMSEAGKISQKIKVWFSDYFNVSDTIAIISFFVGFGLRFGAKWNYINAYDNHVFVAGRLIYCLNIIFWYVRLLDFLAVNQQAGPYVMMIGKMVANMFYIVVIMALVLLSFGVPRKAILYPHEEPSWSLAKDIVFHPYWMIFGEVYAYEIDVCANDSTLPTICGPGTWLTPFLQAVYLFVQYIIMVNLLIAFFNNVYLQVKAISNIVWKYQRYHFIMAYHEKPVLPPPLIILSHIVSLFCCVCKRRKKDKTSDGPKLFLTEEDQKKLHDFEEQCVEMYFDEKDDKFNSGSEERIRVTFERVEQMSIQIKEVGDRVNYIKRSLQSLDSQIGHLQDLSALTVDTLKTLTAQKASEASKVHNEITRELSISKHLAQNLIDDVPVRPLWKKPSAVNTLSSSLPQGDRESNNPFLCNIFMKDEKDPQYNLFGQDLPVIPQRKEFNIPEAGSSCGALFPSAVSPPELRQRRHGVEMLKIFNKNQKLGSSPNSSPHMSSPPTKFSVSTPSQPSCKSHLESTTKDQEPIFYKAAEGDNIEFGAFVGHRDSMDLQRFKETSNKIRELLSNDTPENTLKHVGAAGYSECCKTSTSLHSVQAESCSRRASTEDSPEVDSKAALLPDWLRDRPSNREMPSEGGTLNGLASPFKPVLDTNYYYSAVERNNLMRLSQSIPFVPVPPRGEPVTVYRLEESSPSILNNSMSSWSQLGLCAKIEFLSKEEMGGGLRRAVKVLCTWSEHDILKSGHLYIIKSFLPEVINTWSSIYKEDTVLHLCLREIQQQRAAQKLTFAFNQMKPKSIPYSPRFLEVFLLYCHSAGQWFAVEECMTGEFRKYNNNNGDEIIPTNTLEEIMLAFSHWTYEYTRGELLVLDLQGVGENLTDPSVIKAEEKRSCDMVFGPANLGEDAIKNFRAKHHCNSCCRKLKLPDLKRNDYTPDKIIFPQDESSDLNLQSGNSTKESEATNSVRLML
UniProt Q8CIR4: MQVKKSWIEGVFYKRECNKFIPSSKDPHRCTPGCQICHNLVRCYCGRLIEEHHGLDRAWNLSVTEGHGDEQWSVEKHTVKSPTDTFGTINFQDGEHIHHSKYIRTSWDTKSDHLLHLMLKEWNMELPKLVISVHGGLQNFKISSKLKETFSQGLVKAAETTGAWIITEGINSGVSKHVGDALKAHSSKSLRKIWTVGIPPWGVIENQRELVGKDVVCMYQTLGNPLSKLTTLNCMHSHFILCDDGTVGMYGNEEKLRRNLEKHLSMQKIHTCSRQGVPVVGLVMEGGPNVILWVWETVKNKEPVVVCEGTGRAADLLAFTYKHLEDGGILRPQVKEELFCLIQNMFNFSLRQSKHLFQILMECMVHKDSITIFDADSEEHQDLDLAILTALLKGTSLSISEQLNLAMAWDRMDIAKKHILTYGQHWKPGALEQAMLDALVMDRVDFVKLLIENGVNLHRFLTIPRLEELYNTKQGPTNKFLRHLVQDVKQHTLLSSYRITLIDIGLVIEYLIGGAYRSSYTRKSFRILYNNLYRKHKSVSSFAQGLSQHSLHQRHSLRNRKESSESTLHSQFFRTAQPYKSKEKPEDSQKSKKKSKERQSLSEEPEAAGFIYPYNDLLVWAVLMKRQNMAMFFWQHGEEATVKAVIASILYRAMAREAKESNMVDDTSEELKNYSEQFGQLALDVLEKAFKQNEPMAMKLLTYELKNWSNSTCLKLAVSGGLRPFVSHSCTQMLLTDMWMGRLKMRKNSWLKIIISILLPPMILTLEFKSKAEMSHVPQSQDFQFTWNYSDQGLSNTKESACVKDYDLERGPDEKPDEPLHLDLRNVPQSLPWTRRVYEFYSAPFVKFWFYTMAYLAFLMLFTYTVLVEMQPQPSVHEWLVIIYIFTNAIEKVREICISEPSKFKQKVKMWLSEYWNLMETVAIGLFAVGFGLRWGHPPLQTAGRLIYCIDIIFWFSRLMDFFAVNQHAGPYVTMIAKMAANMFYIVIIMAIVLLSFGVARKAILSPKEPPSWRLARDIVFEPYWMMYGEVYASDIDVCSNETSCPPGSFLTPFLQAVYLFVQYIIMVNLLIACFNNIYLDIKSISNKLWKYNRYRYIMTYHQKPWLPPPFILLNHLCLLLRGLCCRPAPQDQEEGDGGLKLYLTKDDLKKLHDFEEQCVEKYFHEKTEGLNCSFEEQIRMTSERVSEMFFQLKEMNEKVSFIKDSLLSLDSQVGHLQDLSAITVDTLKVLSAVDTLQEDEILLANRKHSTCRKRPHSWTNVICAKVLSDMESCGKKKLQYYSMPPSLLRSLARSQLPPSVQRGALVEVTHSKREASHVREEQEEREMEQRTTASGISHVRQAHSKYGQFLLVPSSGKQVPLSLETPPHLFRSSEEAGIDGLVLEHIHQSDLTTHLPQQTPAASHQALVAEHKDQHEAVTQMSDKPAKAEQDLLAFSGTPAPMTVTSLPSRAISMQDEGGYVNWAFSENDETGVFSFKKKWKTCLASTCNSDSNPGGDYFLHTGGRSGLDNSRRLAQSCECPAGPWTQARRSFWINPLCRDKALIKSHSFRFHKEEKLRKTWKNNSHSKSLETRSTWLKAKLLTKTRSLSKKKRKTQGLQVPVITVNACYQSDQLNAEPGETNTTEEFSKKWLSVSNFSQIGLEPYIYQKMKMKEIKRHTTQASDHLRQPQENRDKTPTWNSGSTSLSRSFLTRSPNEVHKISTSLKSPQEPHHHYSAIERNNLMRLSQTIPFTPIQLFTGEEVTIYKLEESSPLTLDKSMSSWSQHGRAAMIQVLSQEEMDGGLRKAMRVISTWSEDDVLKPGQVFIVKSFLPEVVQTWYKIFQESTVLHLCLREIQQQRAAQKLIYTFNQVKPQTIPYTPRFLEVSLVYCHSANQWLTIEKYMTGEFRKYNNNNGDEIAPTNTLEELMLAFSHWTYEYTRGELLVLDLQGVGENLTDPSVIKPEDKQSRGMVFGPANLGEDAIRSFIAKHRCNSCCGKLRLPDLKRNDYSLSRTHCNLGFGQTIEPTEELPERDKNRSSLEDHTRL
UniProt P11142: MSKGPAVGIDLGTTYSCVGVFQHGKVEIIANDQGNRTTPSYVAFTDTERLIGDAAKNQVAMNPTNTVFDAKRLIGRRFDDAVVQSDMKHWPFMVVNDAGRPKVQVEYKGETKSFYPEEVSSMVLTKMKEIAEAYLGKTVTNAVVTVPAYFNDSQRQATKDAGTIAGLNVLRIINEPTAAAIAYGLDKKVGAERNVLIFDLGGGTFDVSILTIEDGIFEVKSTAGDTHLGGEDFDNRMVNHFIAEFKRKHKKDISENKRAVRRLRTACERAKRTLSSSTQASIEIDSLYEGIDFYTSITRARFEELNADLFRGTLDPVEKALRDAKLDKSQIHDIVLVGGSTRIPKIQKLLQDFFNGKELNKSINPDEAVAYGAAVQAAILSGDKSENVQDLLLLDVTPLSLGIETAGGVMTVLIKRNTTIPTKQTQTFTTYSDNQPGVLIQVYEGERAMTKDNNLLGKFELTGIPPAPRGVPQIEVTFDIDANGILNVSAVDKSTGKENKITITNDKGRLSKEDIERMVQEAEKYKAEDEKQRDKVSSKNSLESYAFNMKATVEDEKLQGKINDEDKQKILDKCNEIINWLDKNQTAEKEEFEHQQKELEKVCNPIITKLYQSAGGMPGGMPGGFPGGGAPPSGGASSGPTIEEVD

Experiments:
[1] = target: HA-tagged TRPM7 (canonical splice form, full length) (mouse) (UniProt Q923J1); assay: affinity purification with mass spectrometry
[2] = target: HA-tagged TRPM6 (canonical splice form, full length) (mouse) (UniProt Q8CIR4); assay: affinity purification with mass spectrometry

- binding [1]: binds
- binding [2]: binds
Substance: human heat shock protein cognate 71 (from UniProt P11142 1-646)

Results are given in words; binding and its absence hold for the method and conditions named. Binding seen in cells or lysates may run through a third protein. A yes stands for co-enrichment or nearness to the bait. Other partners may have been found.
